Part of at least one peptide drawing is inferred or uncertain, most often the ends. Square brackets hold non-standard residues; d marks the D form. Peptide text beside a SMILES is read from it. Tle = CC(C)(C)[C@H](N)C(=O)O
Target: T1, human neurotensin receptor type 1 (hNTR-1) (Homo sapiens, UniProt P30989)
T1 construct: purchased PerkinElmer; host or cells: CHO cells stably expressing human NTR-1 (membrane homogenates)
Test: Competition binding assay with [3H]-neurotensin on human NTR-1 membranes (CHO cells)
Settings: [3H]-neurotensin 3 nM; CHO membrane homogenates; Cheng-Prusoff from mean IC50; read-out: NTR-1 binding affinity Ki, Human NTR-1

Protein sequences, listed by entry. Tags and fused reporters are not part of them.
UniProt P30989, whole entry: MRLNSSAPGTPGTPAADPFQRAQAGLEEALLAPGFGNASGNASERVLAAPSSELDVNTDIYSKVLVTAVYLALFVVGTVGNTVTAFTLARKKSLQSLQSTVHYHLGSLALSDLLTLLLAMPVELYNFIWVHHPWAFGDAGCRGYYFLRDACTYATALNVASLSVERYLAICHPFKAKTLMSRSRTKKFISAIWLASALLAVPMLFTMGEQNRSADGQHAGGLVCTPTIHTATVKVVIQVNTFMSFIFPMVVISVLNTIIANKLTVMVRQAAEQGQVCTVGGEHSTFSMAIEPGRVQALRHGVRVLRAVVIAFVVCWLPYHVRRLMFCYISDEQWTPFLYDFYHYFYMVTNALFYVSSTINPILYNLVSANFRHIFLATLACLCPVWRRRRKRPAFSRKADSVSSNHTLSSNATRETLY

CC(C)C[C@H](NC(=O)[C@@H](NC(=O)[C@H](Cc1ccc(O)cc1)NC(=O)[C@@H]1CCCN1C(=O)[C@H](CCCNC(=N)N)NC(=O)[C@@H](N)CCCCN)C(C)(C)C)C(=O)O [[Lys8, Tle12]NT(8-13), reference compound] (H-KRPY[Tle]L-OH; N-terminus and C-terminus assumed)
Ki: 0.22 ± 0.05 nM

Source: patent US9821072B2, “Activated neurotensin molecules and the uses thereof” (priority 2014, dated 2017)
